These are yes or no findings as the source states them, for the method shown. In cells and extracts the contact can be indirect. Binding can be weak; no strength is given.
Target: OLIG2 (not stated (immunoprecipitated from rat iOLs)) (UniProt G3V612)
Assay: co-IP; immunoprecipitation from rat iOLs (for OLIG2 and BRG1: Setdb1 knockdown rat iOLs); primary antibody 8 hr at 4 °C, protein A-Sepharose, western blotting

By UniProt entry, the sequences of proteins in these tests, tags left out. Where a name states a change or a piece, a line headed by the entry shows the natural chain unless it says otherwise.
UniProt G3V612: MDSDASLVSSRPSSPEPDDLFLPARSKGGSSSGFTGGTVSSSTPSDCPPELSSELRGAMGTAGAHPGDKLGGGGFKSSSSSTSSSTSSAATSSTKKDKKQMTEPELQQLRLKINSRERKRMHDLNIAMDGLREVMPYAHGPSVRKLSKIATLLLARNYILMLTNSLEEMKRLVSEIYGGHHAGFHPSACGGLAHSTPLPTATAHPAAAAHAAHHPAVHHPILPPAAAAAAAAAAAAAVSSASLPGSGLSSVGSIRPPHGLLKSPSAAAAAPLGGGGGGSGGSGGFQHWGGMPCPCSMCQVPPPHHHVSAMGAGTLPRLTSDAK
UniProt Q8K1P7: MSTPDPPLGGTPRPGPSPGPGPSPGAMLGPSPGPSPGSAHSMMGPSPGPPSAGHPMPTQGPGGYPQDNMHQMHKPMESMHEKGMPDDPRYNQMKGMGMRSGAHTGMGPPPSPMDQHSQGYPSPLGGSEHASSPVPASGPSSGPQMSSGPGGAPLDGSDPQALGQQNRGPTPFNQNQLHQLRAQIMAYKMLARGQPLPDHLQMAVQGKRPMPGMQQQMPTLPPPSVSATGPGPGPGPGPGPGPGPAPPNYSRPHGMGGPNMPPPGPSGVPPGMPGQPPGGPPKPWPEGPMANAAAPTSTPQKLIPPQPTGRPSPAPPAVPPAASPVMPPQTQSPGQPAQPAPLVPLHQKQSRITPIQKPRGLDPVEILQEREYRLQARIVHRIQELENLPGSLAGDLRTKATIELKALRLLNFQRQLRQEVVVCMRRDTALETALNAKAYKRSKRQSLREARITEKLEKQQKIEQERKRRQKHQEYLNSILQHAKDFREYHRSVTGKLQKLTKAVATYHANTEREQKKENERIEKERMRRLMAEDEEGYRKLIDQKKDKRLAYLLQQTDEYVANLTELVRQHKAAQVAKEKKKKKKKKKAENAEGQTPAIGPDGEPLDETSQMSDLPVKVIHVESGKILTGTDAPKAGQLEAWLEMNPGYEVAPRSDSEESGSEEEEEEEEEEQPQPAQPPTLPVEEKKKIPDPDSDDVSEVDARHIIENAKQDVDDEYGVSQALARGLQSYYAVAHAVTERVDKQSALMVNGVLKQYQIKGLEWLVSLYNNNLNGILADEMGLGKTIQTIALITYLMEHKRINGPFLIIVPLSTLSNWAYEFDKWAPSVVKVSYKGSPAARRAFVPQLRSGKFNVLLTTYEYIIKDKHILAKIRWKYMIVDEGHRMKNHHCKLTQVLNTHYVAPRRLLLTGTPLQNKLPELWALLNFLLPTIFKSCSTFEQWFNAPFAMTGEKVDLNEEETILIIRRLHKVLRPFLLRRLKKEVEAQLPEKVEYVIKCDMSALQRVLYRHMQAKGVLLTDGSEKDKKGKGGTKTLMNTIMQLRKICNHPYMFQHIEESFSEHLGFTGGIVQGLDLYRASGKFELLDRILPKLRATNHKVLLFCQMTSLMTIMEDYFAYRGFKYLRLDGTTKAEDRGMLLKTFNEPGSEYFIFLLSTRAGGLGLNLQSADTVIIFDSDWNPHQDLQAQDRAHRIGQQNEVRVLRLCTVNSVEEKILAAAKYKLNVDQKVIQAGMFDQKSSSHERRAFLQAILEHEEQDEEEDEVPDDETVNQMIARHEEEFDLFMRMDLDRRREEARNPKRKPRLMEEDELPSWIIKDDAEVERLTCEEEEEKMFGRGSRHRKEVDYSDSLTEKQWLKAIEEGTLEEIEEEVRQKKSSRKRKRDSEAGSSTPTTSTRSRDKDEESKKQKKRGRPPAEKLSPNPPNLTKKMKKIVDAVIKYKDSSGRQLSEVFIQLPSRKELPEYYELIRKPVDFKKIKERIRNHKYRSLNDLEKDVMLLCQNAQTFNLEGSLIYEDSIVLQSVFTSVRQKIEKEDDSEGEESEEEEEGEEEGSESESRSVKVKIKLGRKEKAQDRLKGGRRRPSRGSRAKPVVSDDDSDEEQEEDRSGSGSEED

binding: binds
Substance: BRG1 (from UniProt Q8K1P7 1-1613)

From article PMC8931116
